In article PMC3923681:
Results are given in words; binding and its absence hold for the method and conditions named. In cells and extracts the contact can be indirect.

Protein sequences, listed by entry. Tags and fused reporters are not part of them. Lines headed by an entry give the natural chain unless they say otherwise; changes in a name come on top. Chains listed by the source or under a name are the forms on record and can include a tag or linker.
UniProt Q9UQE7: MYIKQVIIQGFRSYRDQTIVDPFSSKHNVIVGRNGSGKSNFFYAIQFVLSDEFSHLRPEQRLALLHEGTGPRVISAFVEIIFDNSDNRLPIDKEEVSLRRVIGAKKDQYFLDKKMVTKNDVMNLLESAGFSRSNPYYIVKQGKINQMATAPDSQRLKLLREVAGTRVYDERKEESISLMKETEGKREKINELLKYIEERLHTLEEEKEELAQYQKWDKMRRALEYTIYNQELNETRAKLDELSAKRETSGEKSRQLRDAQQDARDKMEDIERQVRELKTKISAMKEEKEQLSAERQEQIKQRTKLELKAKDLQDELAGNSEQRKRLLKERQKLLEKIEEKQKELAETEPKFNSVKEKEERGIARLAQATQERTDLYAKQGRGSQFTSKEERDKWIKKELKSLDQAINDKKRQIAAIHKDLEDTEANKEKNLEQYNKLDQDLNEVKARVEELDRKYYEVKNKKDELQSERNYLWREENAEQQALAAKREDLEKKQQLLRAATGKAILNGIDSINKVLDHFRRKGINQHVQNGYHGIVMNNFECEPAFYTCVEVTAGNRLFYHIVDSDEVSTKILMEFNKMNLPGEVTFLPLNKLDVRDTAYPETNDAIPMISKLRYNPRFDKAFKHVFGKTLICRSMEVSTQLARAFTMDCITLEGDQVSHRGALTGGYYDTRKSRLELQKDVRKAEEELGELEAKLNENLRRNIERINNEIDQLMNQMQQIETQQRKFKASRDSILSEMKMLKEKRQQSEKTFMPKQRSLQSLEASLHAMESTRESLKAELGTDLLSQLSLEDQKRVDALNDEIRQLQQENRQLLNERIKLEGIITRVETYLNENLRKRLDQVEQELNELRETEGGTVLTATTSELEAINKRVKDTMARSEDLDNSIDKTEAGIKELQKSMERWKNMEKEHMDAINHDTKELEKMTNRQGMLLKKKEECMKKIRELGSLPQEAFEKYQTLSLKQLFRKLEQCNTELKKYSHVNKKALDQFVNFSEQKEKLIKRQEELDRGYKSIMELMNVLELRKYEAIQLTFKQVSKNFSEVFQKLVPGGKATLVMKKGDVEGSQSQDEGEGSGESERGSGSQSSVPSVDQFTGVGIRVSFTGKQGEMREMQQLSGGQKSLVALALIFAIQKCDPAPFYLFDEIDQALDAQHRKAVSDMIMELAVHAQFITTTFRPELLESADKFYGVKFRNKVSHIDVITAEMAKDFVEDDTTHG
NIPBL isoform B (short isoform) (Q6KC79-2, form named): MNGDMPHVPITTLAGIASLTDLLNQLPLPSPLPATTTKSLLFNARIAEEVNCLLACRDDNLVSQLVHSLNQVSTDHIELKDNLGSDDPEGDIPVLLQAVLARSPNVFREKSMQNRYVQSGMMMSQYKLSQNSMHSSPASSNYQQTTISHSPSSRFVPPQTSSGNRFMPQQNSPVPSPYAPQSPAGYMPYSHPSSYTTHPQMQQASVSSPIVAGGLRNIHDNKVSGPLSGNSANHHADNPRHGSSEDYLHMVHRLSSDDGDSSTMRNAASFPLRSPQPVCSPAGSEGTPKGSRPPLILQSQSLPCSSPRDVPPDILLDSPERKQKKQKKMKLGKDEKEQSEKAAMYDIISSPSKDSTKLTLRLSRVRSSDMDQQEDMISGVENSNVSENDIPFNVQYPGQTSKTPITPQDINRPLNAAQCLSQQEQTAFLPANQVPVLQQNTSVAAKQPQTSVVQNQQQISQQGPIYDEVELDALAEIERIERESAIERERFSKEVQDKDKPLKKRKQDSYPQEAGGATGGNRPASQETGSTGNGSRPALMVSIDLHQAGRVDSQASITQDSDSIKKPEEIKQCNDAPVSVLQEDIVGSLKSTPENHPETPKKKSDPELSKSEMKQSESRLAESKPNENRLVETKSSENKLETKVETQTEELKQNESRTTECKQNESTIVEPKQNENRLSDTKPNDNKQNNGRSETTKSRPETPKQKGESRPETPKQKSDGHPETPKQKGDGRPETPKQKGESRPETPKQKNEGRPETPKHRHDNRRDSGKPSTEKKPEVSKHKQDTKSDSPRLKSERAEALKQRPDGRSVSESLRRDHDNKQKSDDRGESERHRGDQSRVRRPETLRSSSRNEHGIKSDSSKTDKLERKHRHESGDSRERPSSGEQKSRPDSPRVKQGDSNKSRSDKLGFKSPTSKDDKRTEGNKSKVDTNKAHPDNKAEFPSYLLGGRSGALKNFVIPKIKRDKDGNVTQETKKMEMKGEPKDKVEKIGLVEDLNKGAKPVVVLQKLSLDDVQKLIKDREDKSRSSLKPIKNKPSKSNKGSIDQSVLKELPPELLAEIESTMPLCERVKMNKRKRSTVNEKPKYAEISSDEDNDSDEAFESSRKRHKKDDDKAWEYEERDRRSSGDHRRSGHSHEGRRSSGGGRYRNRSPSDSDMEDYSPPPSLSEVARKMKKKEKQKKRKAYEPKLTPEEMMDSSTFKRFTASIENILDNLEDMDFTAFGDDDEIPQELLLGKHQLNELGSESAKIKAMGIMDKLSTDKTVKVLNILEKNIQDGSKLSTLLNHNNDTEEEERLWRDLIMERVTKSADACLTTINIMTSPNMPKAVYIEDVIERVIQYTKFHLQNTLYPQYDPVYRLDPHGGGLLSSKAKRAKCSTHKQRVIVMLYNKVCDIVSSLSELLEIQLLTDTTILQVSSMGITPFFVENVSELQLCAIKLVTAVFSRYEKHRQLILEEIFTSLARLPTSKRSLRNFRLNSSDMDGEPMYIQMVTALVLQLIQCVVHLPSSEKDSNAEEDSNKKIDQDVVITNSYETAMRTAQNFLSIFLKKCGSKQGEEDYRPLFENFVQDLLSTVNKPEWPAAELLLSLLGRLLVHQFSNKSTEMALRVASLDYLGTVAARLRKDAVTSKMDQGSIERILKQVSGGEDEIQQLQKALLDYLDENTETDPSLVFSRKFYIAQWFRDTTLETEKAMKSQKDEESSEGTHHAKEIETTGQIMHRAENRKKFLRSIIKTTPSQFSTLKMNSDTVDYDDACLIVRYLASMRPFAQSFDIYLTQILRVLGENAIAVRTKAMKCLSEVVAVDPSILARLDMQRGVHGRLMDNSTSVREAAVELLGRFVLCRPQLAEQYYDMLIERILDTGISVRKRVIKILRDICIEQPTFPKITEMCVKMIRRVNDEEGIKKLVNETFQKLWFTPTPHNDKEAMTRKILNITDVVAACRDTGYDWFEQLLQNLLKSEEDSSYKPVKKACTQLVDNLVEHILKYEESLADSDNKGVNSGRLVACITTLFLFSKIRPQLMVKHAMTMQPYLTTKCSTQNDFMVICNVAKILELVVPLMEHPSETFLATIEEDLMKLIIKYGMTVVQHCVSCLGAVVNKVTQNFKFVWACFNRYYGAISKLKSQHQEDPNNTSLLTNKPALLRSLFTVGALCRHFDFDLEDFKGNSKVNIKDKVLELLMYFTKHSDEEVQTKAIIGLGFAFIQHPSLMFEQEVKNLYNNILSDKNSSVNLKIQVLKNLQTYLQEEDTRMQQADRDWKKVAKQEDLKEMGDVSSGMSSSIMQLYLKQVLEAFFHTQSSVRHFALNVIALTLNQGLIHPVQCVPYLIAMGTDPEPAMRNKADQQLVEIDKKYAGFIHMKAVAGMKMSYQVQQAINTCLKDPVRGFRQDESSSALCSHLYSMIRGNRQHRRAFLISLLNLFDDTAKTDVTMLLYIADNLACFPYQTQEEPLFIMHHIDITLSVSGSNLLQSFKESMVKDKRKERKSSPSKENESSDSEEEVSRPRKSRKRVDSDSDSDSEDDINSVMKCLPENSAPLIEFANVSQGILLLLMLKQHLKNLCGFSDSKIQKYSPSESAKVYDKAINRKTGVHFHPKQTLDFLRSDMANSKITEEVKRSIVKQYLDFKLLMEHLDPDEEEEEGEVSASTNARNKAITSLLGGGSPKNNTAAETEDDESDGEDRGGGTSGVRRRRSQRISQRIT

Target: SMC3 (cohesin subunit) (human (endogenous in HeLa)) (UniProt Q9UQE7)
Assay: co-IP; anti-SMC3 antibodies, nuclear extract of G1-phase enriched HeLa cells (0.4 M NaCl extraction) diluted to 50% with IP buffer (20 mM Tris-HCl pH 7.5, 100 mM NaCl, 5 mM MgCl2, 0.2% NP40, 1 mM NaF, 0.5 mM DTT), 1 h at 4°C, Protein A beads, 3 washes; Western blots probed with NIPBL#3 (isoform A) and NIPBL#4 (isoform B)

binding: no binding
Substance: NIPBL isoform B (short isoform) (from UniProt Q6KC79-2 1-2697)
